The source of these data is article PMC5833644.

These are yes or no findings as the source states them, for the method shown.

The target in this assay is T1, MUC13 (human (endogenous in HPAF-II and AsPC1)) (UniProt Q9H3R2).
T1 sequence: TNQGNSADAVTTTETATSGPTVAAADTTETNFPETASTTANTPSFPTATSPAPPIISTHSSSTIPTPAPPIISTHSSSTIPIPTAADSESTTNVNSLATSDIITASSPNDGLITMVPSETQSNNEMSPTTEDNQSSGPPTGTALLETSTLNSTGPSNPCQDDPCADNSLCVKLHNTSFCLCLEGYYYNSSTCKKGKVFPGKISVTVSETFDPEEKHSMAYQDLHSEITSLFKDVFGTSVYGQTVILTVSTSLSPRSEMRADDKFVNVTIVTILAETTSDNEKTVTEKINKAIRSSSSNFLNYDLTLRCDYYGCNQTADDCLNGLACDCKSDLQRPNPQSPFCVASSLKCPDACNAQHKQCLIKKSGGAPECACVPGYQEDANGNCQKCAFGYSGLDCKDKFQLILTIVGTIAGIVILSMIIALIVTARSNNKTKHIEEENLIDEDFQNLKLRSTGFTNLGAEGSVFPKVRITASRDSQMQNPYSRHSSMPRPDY
The experiment in a line: co-capping assay; HPAF-II and AsPC1 cells incubated with NHS-Rhodamine-labeled anti-MUC13 mAb (30 µg/ml) 1 h at 4 °C, plated at 37 °C for about 2 h, then stained for Glut-1 or α-tubulin; confocal microscopy.

As to “alpha-tubulin (human (endogenous in HPAF-II))”, the binding entry was “no binding”.
